Measurements published in article PMC12404744.
Results are given in words; binding and its absence hold for the method and conditions named. Binding seen in cells or lysates may run through a third protein. Some binding calls cover weakened binding; strength is not graded here. Where a sequence is shown, tags or fusion partners need not be part of it.

By UniProt entry, the sequences of proteins in these tests, tags left out.
UniProt P49792: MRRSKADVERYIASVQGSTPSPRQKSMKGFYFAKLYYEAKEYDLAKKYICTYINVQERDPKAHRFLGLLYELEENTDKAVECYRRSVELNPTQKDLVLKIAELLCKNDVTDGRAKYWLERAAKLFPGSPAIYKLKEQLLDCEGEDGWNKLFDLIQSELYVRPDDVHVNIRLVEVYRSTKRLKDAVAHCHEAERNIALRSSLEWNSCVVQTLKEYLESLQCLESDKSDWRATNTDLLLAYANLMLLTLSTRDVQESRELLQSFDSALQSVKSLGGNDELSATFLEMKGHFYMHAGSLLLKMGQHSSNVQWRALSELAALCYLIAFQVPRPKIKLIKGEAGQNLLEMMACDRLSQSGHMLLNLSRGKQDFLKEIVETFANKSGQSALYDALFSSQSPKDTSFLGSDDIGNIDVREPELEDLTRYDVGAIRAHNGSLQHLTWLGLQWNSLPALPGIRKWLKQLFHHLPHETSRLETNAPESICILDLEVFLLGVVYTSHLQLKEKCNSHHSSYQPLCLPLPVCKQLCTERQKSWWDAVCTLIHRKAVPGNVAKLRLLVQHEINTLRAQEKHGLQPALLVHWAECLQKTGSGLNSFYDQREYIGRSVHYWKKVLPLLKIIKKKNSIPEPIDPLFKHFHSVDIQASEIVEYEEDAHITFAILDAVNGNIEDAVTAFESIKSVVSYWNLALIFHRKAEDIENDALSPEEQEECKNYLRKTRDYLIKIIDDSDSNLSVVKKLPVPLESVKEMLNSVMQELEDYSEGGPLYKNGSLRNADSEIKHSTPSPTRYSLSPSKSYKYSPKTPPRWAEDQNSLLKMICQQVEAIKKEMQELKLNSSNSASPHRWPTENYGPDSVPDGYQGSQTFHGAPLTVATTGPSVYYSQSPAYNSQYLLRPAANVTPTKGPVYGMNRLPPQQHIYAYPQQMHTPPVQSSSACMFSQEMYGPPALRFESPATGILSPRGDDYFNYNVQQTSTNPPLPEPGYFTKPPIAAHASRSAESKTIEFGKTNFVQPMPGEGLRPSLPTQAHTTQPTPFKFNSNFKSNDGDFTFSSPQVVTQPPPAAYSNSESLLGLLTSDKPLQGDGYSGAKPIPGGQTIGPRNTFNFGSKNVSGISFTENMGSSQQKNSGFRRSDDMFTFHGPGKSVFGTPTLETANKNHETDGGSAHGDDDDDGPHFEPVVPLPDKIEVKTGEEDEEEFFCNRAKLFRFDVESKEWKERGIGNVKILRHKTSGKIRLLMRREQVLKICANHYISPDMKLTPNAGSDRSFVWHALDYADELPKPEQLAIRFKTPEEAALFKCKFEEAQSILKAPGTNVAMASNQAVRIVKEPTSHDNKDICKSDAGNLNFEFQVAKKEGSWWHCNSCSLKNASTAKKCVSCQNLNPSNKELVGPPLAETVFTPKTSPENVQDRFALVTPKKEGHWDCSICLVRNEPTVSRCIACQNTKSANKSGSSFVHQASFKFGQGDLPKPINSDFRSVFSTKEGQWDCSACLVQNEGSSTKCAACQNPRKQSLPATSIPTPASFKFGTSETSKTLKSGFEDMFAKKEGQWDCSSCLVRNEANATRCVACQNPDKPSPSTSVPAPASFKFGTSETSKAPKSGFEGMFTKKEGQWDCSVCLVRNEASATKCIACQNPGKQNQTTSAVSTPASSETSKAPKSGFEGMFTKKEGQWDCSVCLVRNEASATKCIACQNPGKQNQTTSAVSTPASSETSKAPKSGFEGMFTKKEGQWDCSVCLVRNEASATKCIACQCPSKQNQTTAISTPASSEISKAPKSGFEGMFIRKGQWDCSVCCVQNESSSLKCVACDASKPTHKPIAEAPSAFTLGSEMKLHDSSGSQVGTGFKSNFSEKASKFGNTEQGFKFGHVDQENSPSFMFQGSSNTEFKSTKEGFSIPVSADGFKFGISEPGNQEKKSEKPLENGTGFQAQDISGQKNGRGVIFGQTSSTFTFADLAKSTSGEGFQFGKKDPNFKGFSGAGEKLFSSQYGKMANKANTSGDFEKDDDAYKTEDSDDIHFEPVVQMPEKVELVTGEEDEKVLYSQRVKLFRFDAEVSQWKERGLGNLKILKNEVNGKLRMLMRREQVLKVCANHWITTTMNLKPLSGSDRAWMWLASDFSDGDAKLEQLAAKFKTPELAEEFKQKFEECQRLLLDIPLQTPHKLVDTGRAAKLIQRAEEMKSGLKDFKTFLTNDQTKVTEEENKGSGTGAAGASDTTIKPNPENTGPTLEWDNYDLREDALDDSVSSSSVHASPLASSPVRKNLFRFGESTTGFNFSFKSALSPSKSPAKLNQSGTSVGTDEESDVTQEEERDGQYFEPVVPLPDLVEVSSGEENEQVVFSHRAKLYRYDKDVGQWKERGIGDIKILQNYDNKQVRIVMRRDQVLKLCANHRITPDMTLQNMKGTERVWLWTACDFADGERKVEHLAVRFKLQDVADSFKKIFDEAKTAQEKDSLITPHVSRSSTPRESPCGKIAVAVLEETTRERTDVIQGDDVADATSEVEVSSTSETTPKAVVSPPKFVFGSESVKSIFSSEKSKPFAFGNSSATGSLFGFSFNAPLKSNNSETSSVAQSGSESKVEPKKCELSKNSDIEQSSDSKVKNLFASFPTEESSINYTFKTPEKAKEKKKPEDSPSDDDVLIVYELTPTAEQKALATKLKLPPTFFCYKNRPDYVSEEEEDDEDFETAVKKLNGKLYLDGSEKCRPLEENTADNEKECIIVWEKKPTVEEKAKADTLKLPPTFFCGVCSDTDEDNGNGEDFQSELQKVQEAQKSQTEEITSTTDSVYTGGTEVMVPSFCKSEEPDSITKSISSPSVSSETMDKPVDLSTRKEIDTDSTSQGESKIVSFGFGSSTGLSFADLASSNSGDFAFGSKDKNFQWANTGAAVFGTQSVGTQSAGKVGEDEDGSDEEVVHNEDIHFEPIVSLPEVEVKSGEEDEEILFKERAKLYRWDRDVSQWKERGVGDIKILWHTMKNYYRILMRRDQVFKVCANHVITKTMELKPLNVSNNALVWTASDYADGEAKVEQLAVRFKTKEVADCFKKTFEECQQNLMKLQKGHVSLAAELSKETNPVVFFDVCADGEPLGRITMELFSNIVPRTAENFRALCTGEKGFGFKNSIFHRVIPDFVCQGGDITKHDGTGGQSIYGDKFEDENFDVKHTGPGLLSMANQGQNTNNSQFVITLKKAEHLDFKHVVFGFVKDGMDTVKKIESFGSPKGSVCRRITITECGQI

Molecular target: T1, FLAG-tagged WT nemo-like kinase (FLAG-NLK-WT) (UniProt Q9UBE8)
T1 sequence: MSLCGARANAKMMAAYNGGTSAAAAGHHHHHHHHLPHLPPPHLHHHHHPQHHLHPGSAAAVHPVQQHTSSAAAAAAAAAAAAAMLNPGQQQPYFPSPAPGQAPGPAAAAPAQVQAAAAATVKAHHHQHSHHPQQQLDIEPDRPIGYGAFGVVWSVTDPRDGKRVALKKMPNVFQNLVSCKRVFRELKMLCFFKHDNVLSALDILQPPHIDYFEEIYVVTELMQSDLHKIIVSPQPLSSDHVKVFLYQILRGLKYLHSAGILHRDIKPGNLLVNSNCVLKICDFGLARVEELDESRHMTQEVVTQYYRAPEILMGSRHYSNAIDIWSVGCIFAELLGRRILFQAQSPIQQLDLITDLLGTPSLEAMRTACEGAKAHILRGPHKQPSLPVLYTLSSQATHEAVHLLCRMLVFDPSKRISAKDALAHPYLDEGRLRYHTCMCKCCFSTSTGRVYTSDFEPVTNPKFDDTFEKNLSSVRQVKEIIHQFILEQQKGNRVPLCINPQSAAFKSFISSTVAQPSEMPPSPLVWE
Experiment: co-IP; HEK293T cells transfected with empty vector or FLAG-NLK-WT, 48 h; lysis in PBS with 1 mM CaCl2, 0.5 mM MgCl2, 1% Triton X-100; 2 mg lysate with 1 ug of the indicated antibodies overnight at 4°C, protein G beads, 5 washes; Western blot

binding: binds
Substance: RanBP2 (from UniProt P49792 1-3224)
